# The list shows a part of the results.
# B1: CBP21 (Serratia marcescens), O83009 (protein)
# chain: MNKTSRTLLSLGLLSAAMFGVSQQANAHGYVESPASRAYQCKLQLNTQCGSVQAEPQSVEGLKGFPQAGPADGHIASADKSTFFELDQQTPTRWNKLNLKTGPNSFTWKLTARHSTTSWRYFITKPNWDASQPLTRASFDLTPFCQFNDGGAIPAAQVTHQCNIPADRSGSHVILAVWDIADTANAFYQAIDVNLSK
# What was measured:
# Assay in all cases: glycan array binding signal (z-score within array); higher = stronger binding
# Conditions in all cases: glycan notation: IUPAC condensed, linker removed; mutation: Y54A
# GalNAc(b1-4)GlcNAc = molecular target: GalNAc(b1-4)GlcNAc
# In short: (§1)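 The binding signal is a Z-score computed within each array and averaged over linkers. Arrays of the same protein sequence at different concentrations or buffers were also averaged together. Data originate from 3228 arrays in the Consortium for Functional Glycomics database, kept only where the protein sequence was available.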
# [1] = molecular target: GalNAc(b1-4)GlcNAc(b1-2)Man
# In short: as §1
# [2] = molecular target: GalNAc(b1-4)GlcNAc(b1-2)Man(a1-3)[GalNAc(b1-4)GlcNAc(b1-2)Man(a1-6)]Man(b1-4)GlcNAc(b1-4)GlcNAc
# In short: as §1
# [3] = molecular target: GalNAc(b1-4)GlcNAc(b1-3)GalNAc(b1-4)GlcNAc
# In short: as §1
# GalNAc(b1-4)GlcNAc6S = molecular target: GalNAc(b1-4)GlcNAc6S
# In short: as §1
# GalNAc(b1-6)GalNAc = molecular target: GalNAc(b1-6)GalNAc
# In short: as §1
# GalNAc3S(b1-4)GlcNAc = molecular target: GalNAc3S(b1-4)GlcNAc
# In short: as §1
# GalNAc3S(b1-4)GlcNAc3S = molecular target: GalNAc3S(b1-4)GlcNAc3S
# In short: as §1
# [4] = molecular target: GalNAc3S(b1-4)[Fuc(a1-3)]GlcNAc
# In short: as §1
# GalNAc4S6S(b1-4)GlcNAc = molecular target: GalNAc4S6S(b1-4)GlcNAc
# In short: as §1
# GalNAc6S(b1-4)GlcNAc = molecular target: GalNAc6S(b1-4)GlcNAc
# In short: as §1
# Glc(a1-4)Glc = molecular target: Glc(a1-4)Glc
# In short: as §1
# [5] = molecular target: Glc(a1-4)Glc(a1-4)Glc(a1-4)Glc
# In short: as §1
# Glc(a1-6)Glc(a1-6)Glc = molecular target: Glc(a1-6)Glc(a1-6)Glc
# In short: as §1
# [6] = molecular target: Glc(a1-6)Glc(a1-6)Glc(a1-6)Glc
# In short: as §1
# Glc(b1-4)Glc = molecular target: Glc(b1-4)Glc
# In short: as §1
# Glc(b1-6)Glc = molecular target: Glc(b1-6)Glc
# In short: as §1
# GlcA(b1-3)Gal = molecular target: GlcA(b1-3)Gal
# In short: as §1
# GlcA(b1-3)GlcNAc = molecular target: GlcA(b1-3)GlcNAc
# In short: as §1
# GlcA(b1-6)Gal = molecular target: GlcA(b1-6)Gal
# In short: as §1
# [7] = molecular target: GlcA3S(b1-3)Gal(b1-4)GlcNAc(b1-2)Man
# In short: as §1
# [8] = molecular target: GlcA3S(b1-3)Gal(b1-4)GlcNAc(b1-3)Gal(b1-4)Glc
# In short: as §1
# [9] = molecular target: GlcNAc(a1-3)Gal(b1-4)GlcNAc
# In short: as §1
# [10] = molecular target: GlcNAc(a1-4)Gal(b1-3)GlcNAc
# In short: as §1
# [11] = molecular target: GlcNAc(a1-4)Gal(b1-4)GalNAc
# In short: as §1
# [12] = molecular target: GlcNAc(a1-4)Gal(b1-4)GlcNAc
# In short: as §1
# [13] = molecular target: GlcNAc(a1-4)Gal(b1-4)GlcNAc(b1-3)Gal(b1-4)Glc
# In short: as §1
# [14] = molecular target: GlcNAc(a1-4)Gal(b1-4)GlcNAc(b1-3)Gal(b1-4)GlcNAc
# In short: as §1
# [15] = molecular target: GlcNAc(a1-4)Gal(b1-4)GlcNAc(b1-3)Gal(b1-4)GlcNAc(b1-3)Gal(b1-4)GlcNAc
# In short: as §1
# [16] = molecular target: GlcNAc(a1-4)Gal(b1-4)GlcNAc(b1-3)Gal(b1-4)[Fuc(a1-3)]GlcNAc(b1-3)Gal(b1-4)[Fuc(a1-3)]GlcNAc
# In short: as §1
# [17] = molecular target: GlcNAc(a1-6)Gal(b1-4)GlcNAc
# In short: as §1
# [18] = molecular target: GlcNAc(b1-2)Gal(b1-3)GalNAc
# In short: as §1
# [19] = molecular target: GlcNAc(b1-2)Man(a1-3)[GlcNAc(b1-2)Man(a1-6)]Man(b1-4)GlcNAc(b1-4)GlcNAc
# In short: as §1
# [20] = molecular target: GlcNAc(b1-2)Man(a1-3)[GlcNAc(b1-2)Man(a1-6)]Man(b1-4)GlcNAc(b1-4)[Fuc(a1-6)]GlcNAc
# In short: as §1
# [21] = molecular target: GlcNAc(b1-2)Man(a1-3)[GlcNAc(b1-4)][GlcNAc(b1-2)Man(a1-6)]Man(b1-4)GlcNAc(b1-4)GlcNAc
# In short: as §1
# [22] = molecular target: GlcNAc(b1-2)Man(a1-3)[GlcNAc(b1-4)][GlcNAc(b1-2)Man(a1-6)]Man(b1-4)GlcNAc(b1-4)[Fuc(a1-6)]GlcNAc
# In short: as §1
# [23] = molecular target: GlcNAc(b1-2)[GlcNAc(b1-4)]Man(a1-3)[GlcNAc(b1-2)Man(a1-6)]Man(b1-4)GlcNAc(b1-4)GlcNAc
# In short: as §1
# [24] = molecular target: GlcNAc(b1-2)[GlcNAc(b1-4)]Man(a1-3)[GlcNAc(b1-4)][GlcNAc(b1-2)Man(a1-6)]Man(b1-4)GlcNAc(b1-4)GlcNAc
# In short: as §1
# [25] = molecular target: GlcNAc(b1-2)[GlcNAc(b1-4)]Man(a1-3)[GlcNAc(b1-4)][GlcNAc(b1-2)[GlcNAc(b1-6)]Man(a1-6)]Man(b1-4)GlcNAc(b1-4)GlcNAc
# In short: as §1
# [26] = molecular target: GlcNAc(b1-2)[GlcNAc(b1-4)]Man(a1-3)[GlcNAc(b1-4)][GlcNAc(b1-2)[GlcNAc(b1-6)]Man(a1-6)]Man(b1-4)GlcNAc(b1-4)[Fuc(a1-6)]GlcNAc
# In short: as §1
# [27] = molecular target: GlcNAc(b1-2)[GlcNAc(b1-6)]Man(a1-6)[GlcNAc(b1-2)Man(a1-3)]Man(b1-4)GlcNAc(b1-4)GlcNAc
# In short: as §1
# [28] = molecular target: GlcNAc(b1-2)[GlcNAc(b1-6)]Man(a1-6)[GlcNAc(b1-2)Man(a1-3)]Man(b1-4)GlcNAc(b1-4)[Fuc(a1-6)]GlcNAc
# In short: as §1
# [29] = molecular target: GlcNAc(b1-2)[GlcNAc(b1-6)]Man(a1-6)[GlcNAc(b1-4)][GlcNAc(b1-2)Man(a1-3)]Man(b1-4)GlcNAc(b1-4)GlcNAc
# In short: as §1
# GlcNAc(b1-3)Fuc = molecular target: GlcNAc(b1-3)Fuc
# In short: as §1
# GlcNAc(b1-3)Gal = molecular target: GlcNAc(b1-3)Gal
# In short: as §1
binder,measurement,setting,value
B1,glycan array binding signal (z-score),GalNAc(b1-4)GlcNAc,0.593
same,glycan array binding signal (z-score),[1],-0.018
same,glycan array binding signal (z-score),[2],-1.16
same,glycan array binding signal (z-score),[3],-0.533
same,glycan array binding signal (z-score),GalNAc(b1-4)GlcNAc6S,-0.738
same,glycan array binding signal (z-score),GalNAc(b1-6)GalNAc,-0.944
same,glycan array binding signal (z-score),GalNAc3S(b1-4)GlcNAc,0.647
same,glycan array binding signal (z-score),GalNAc3S(b1-4)GlcNAc3S,0.127
same,glycan array binding signal (z-score),[4],0.039
same,glycan array binding signal (z-score),GalNAc4S6S(b1-4)GlcNAc,0.112
same,glycan array binding signal (z-score),GalNAc6S(b1-4)GlcNAc,0.071
same,glycan array binding signal (z-score),Glc(a1-4)Glc,-0.336
same,glycan array binding signal (z-score),[5],0.407
same,glycan array binding signal (z-score),Glc(a1-6)Glc(a1-6)Glc,0.674
same,glycan array binding signal (z-score),[6],0.183
same,glycan array binding signal (z-score),Glc(b1-4)Glc,-0.067
same,glycan array binding signal (z-score),Glc(b1-6)Glc,-0.267
same,glycan array binding signal (z-score),GlcA(b1-3)Gal,-0.275
same,glycan array binding signal (z-score),GlcA(b1-3)GlcNAc,-0.631
same,glycan array binding signal (z-score),GlcA(b1-6)Gal,0.189
same,glycan array binding signal (z-score),[7],-0.696
same,glycan array binding signal (z-score),[8],-0.278
same,glycan array binding signal (z-score),[9],1.94
same,glycan array binding signal (z-score),[10],-0.693
same,glycan array binding signal (z-score),[11],-0.35
same,glycan array binding signal (z-score),[12],-0.022
same,glycan array binding signal (z-score),[13],-0.876
same,glycan array binding signal (z-score),[14],-1.2
same,glycan array binding signal (z-score),[15],0.011
same,glycan array binding signal (z-score),[16],0.189
same,glycan array binding signal (z-score),[17],-0.367
same,glycan array binding signal (z-score),[18],-0.7
same,glycan array binding signal (z-score),[19],0.384
same,glycan array binding signal (z-score),[20],0.33
same,glycan array binding signal (z-score),[21],-0.76
same,glycan array binding signal (z-score),[22],-0.472
same,glycan array binding signal (z-score),[23],-0.533
same,glycan array binding signal (z-score),[24],1.27
same,glycan array binding signal (z-score),[25],0.29
same,glycan array binding signal (z-score),[26],0.198
same,glycan array binding signal (z-score),[27],0.82
same,glycan array binding signal (z-score),[28],0.904
same,glycan array binding signal (z-score),[29],1.86
same,glycan array binding signal (z-score),GlcNAc(b1-3)Fuc,-0.348
same,glycan array binding signal (z-score),GlcNAc(b1-3)Gal,-1.08

# Retrieved one by one from the list above:
binder,measurement,setting,value
B1,glycan array binding signal (z-score),GalNAc3S(b1-4)GlcNAc3S,0.127
same,glycan array binding signal (z-score),[12],-0.022

# — the supplement of paper PMC8728848
